The source gives many values for each of these; only a part stands here.
Experiments:
Assay type in all cases: cell-based
Details in all cases: U-87MG ATCC
[1] = Inhibition of RTK/PI3K/AKT/mTOR signaling in human U87 cells assessed as down regulation of OXCT1 gene expression at cytotoxic IC50 measured after 48 hrs relative to control
[2] = Inhibition of RTK/PI3K/AKT/mTOR signaling in human U87 cells assessed as up regulation of SERPINA1 gene expression at cytotoxic IC50 measured after 48 hrs relative to control
[3] = Inhibition of RTK/PI3K/AKT/mTOR signaling in human U87 cells assessed as down regulation of SACS gene expression at cytotoxic IC50 measured after 48 hrs relative to control
[4] = Inhibition of RTK/PI3K/AKT/mTOR signaling in human U87 cells assessed as up regulation of prostaglandin-endoperoxide synthase 1 gene expression at cytotoxic IC50 measured after 48 hrs relative to control
[5] = Inhibition of RTK/PI3K/AKT/mTOR signaling in human U87 cells assessed as down regulation of FANCA gene expression at cytotoxic IC50 measured after 48 hrs relative to control
[6] = Inhibition of RTK/PI3K/AKT/mTOR signaling in human U87 cells assessed as down regulation of NF1 gene expression at cytotoxic IC50 measured after 48 hrs relative to control
[7] = Inhibition of RTK/PI3K/AKT/mTOR signaling in human U87 cells assessed as up regulation of fatty acid desaturase 3 gene expression at cytotoxic IC50 measured after 48 hrs relative to control
[8] = Inhibition of RTK/PI3K/AKT/mTOR signaling in human U87 cells assessed as up regulation of egl-9 family hypoxia inducible factor 1 gene expression at cytotoxic IC50 measured after 48 hrs relative to control
[9] = Inhibition of RTK/PI3K/AKT/mTOR signaling in human U87 cells assessed as down regulation of MTMR2 gene expression at cytotoxic IC50 measured after 48 hrs relative to control
[10] = Inhibition of RTK/PI3K/AKT/mTOR signaling in human U87 cells assessed as down regulation of MARK2 gene expression at cytotoxic IC50 measured after 48 hrs relative to control
[11] = Inhibition of RTK/PI3K/AKT/mTOR signaling in human U87 cells assessed as up regulation of RPS11 gene expression at cytotoxic IC50 measured after 48 hrs relative to control
[12] = Inhibition of RTK/PI3K/AKT/mTOR signaling in human U87 cells assessed as down regulation of UBE2A gene expression at cytotoxic IC50 measured after 48 hrs relative to control
[13] = Inhibition of RTK/PI3K/AKT/mTOR signaling in human U87 cells assessed as down regulation of LYPLA2 gene expression at cytotoxic IC50 measured after 48 hrs relative to control
[14] = Inhibition of RTK/PI3K/AKT/mTOR signaling in human U87 cells assessed as up regulation of mitochondrial ribosomal protein L12 gene expression at cytotoxic IC50 measured after 48 hrs relative to control
[15] = Inhibition of RTK/PI3K/AKT/mTOR signaling in human U87 cells assessed as up regulation of paroxysmal nonkinesigenic dyskinesia gene expression at cytotoxic IC50 measured after 48 hrs relative to control
[16] = Inhibition of RTK/PI3K/AKT/mTOR signaling in human U87 cells assessed as down regulation of FDFT1 gene expression at cytotoxic IC50 measured after 48 hrs relative to control
[17] = Inhibition of RTK/PI3K/AKT/mTOR signaling in human U87 cells assessed as up regulation of serologically defined colon cancer antigen 3 gene expression at cytotoxic IC50 measured after 48 hrs relative to control
[18] = Inhibition of RTK/PI3K/AKT/mTOR signaling in human U87 cells assessed as down regulation of RMDN3 gene expression at cytotoxic IC50 measured after 48 hrs relative to control
[19] = Inhibition of RTK/PI3K/AKT/mTOR signaling in human U87 cells assessed as down regulation of SUPT6H gene expression at cytotoxic IC50 measured after 48 hrs relative to control
[20] = Inhibition of RTK/PI3K/AKT/mTOR signaling in human U87 cells assessed as down regulation of ATG2B gene expression at cytotoxic IC50 measured after 48 hrs relative to control
[21] = Inhibition of RTK/PI3K/AKT/mTOR signaling in human U87 cells assessed as down regulation of PANK2 gene expression at cytotoxic IC50 measured after 48 hrs relative to control
[22] = Inhibition of RTK/PI3K/AKT/mTOR signaling in human U87 cells assessed as down regulation of GDAP2 gene expression at cytotoxic IC50 measured after 48 hrs relative to control
[23] = Inhibition of RTK/PI3K/AKT/mTOR signaling in human U87 cells assessed as up regulation of cathepsin H gene expression at cytotoxic IC50 measured after 48 hrs relative to control
[24] = Inhibition of RTK/PI3K/AKT/mTOR signaling in human U87 cells assessed as down regulation of ABCD3 gene expression at cytotoxic IC50 measured after 48 hrs relative to control
[25] = Inhibition of RTK/PI3K/AKT/mTOR signaling in human U87 cells assessed as up regulation of adenosylmethionine decarboxylase 1 gene expression at cytotoxic IC50 measured after 48 hrs relative to control
[26] = Inhibition of RTK/PI3K/AKT/mTOR signaling in human U87 cells assessed as up regulation of peptidyl arginine deiminase 2 gene expression at cytotoxic IC50 measured after 48 hrs relative to control
[27] = Inhibition of RTK/PI3K/AKT/mTOR signaling in human U87 cells assessed as down regulation of ZNF79 gene expression at cytotoxic IC50 measured after 48 hrs relative to control
[28] = Inhibition of RTK/PI3K/AKT/mTOR signaling in human U87 cells assessed as down regulation of TACC1 gene expression at cytotoxic IC50 measured after 48 hrs relative to control
[29] = Inhibition of RTK/PI3K/AKT/mTOR signaling in human U87 cells assessed as down regulation of SYNJ1 gene expression at cytotoxic IC50 measured after 48 hrs relative to control
[30] = Inhibition of RTK/PI3K/AKT/mTOR signaling in human U87 cells assessed as up regulation of plastin 3 gene expression at cytotoxic IC50 measured after 48 hrs relative to control
[31] = Inhibition of RTK/PI3K/AKT/mTOR signaling in human U87 cells assessed as down regulation of SQOR gene expression at cytotoxic IC50 measured after 48 hrs relative to control
[32] = Inhibition of RTK/PI3K/AKT/mTOR signaling in human U87 cells assessed as up regulation of tetratricopeptide repeat domain 39A gene expression at cytotoxic IC50 measured after 48 hrs relative to control

Work on `CC(=O)C(=NNc1ccccc1C#N)C(C)=O` yielded a log2FC [1] of -1.84, a log2FC [2] of 1.96 and a log2FC [3] of -0.746. The log2FC [4] was 1.45, the log2FC [5] was -0.864 and the log2FC [6] was -0.815. For the same compound, the log2FC [7] was 1.2, the log2FC [8] was 1.32 and the log2FC [9] was -0.933. It also gave a log2FC [10] of -0.746, a log2FC [11] of 0.46 and a log2FC [12] of -0.775. For the same compound, the log2FC [13] was -0.552, the log2FC [14] was 0.988 and the log2FC [15] was 0.981. For the same compound, the log2FC [16] was -0.625, the log2FC [17] was 0.7 and the log2FC [18] was -0.961. It also gave a log2FC [19] of -0.541, a log2FC [20] of -0.842 and a log2FC [21] of -0.636. It also gave a log2FC [22] of -1.05, a log2FC [23] of 1.23 and a log2FC [24] of -0.845. For the same compound, the log2FC [25] was 0.922, the log2FC [26] was 1.38 and the log2FC [27] was -1.42. It also gave a log2FC [28] of -0.697, a log2FC [29] of -2.27 and a log2FC [30] of 0.695. It also gave a log2FC [31] of -1.32 and a log2FC [32] of 0.827.
